Reference: patent publication US20220183937A1, “METHOD FOR IMPROVING THE PERFORMANCE OF A FRAGRANCE OR A FRAGRANCE MIXTURE” (SYMRISE AG, priority 2019, published 2022)
Counter-ions that a name gives are not always drawn.

Experiment: Diffusivity: panel smelling test, impact of a fragrance over a distance
Settings: Example 1; scale 1=no impact within 3 min to 9=high impact within 10 sec; 0.5 g in petri dish at 50 cm, 8 panelists; head range 7 a 9

Compared with O=CCc1ccccc1, COC(Cc1ccccc1)OC is higher in Diffusivity: 7.7 for the first, 7.9 for the second.

Compared with CC1(C)[C@@H]2CC[C@@]1(C)[C@H](O)C2 (racemic) [ISOBORNEOL], COc1ccc(C(C)=O)cc1 [ACETANISOLE CRYST., ACETANISOLE] is lower in Diffusivity: 8.2 for the first, 7.1 for the second.

Going from CC(=O)c1ccccc1 [ACETOPHENONE] to CC(=O)c1nccs1 [ACETYL THIAZOLE-2], the Diffusivity rises from 8.3 to 8.8.

Going from CCCCCCCC=O [ALDEHYDE C 8] to C=CCOC(=O)COCCC(C)C [ALLYL AMYL GLYCOLATE], the Diffusivity falls from 8 to 7.8.

First: CCCCCOC(C)=O [AMYL ACETATE N]
Second: COc1ccc(C=O)cc1 [ANISIC ALDEHYDE PURE, ANISIC ALDEHYDE]
The Diffusivity of the first is higher: 8.8 for the first, 7.1 for the second.

First: CC(=O)OCc1ccccc1 [BENZYL ACETATE]
Second: O=COCc1ccccc1 [BENZYL FORMATE]
The Diffusivity of the first is lower: 7.2 for the first, 7.3 for the second.

Going from CCCCOC(C)=O [BUTYL ACETATE] to Cc1ccc(O)cc1 [CRESOL PARA], the Diffusivity rises from 7.6 to 8.1.

First: COc1ccc(C)cc1 [CRESYL METHYL ETHER PARA]
Second: CC(=O)OC1CCCCC1 [CYCLOHEXYL ACETATE]
The Diffusivity of the first is higher: 8 for the first, 7.9 for the second.

Compared with CCCC(=O)OCC [ETHYL BUTYRATE], CCCCCC(=O)OCC [ETHYL CAPROATE] is higher in Diffusivity: 7.8 for the first, 8.2 for the second.

Compared with CCOC(=O)CC [ETHYL PROPIONATE], CC12CCC(C1)C(C)(C)C2O (stereo not drawn) [FENCHOL] is lower in Diffusivity: 8.7 for the first, 7.9 for the second.

Going from CC(=O)C1CCCC(C)(C)C1 (stereo not drawn) [HERBAC] to CCC/C=C/C=O [HEXENAL TRANS-2], the Diffusivity rises from 7 to 8.1.

First: CC/C=C\CCOC(C)=O [HEXENYL ACETATE CIS-3]
Second: CCCCCCOC(C)=O [HEXYL ACETATE]
The Diffusivity of the first is lower: 7.5 for the first, 7.8 for the second.

Compared with COC(OC)C(C)c1ccccc1 (stereo not drawn) [HYDRATROPIC ALDEHYDE DIMETH.ACET], CC(=O)OCCC(C)C [ISOAMYL ACETATE] is higher in Diffusivity: 7 for the first, 7.8 for the second.

Going from CC(=O)OCC(C)C [ISOBUTYL ACETATE] to COc1nccnc1C(C)C [ISOPROPYL METHOXYPYRAZINE-2,3], the Diffusivity rises from 7.8 to 8.4.

Going from Cc1csc(C(C)C)n1 [ISOPROPYL METHYL THIAZOLE-2,4] to CC/C=C\CCOC(C)OCC (stereo not drawn) [LEAF ACETAL], the Diffusivity falls from 8.4 to 7.5.

First: CC/C=C\CCOC(=O)OC [LEAFOVERT®]
Second: CC1=CC(C)C(C=O)CC1 (stereo not drawn) [LIGUSTRAL]
The Diffusivity of the first is higher: 7.8 for the first, 7.7 for the second.

Going from CCCC(C)C(=O)OCC (stereo not drawn) [MANZANATE] to CC(=O)c1ccc(C)cc1 [METHYL ACETOPHENONE PARA], the Diffusivity rises from 7.4 to 8.2.

First: CCCCCC(=O)OC [METHYL CAPROATE]
Second: CCCCCC#CC(=O)OC [METHYL HEPTIN CARBONATE]
The Diffusivity of the first is higher: 7.8 for the first, 7.5 for the second.

Going from COC(=O)Cc1ccccc1 [METHYL PHENYLACETATE] to CC(=O)CCC=C(C)C [METIL-6-HEPTEN-5-ONA-2 SUPRA, METIL-6-HEPTEN-5-ONA-2], the Diffusivity rises from 7.4 to 7.5.

Going from CC/C=C\CC/C=C/C=O [NONADIENAL TRANS,CIS-2,6] to CCCCCCC(C)=O [OCTANONE-2], the Diffusivity falls from 8.3 to 7.7.

Going from CCCCCC(=O)CC [OCTANONE-3] to OCCc1ccccc1 [PHENYLETHYL ALCOHOL BA FREE, PHENYLETHYL ALCOHOL], the Diffusivity falls from 7.9 to 7.

Compared with O=COCCc1ccccc1 [PHENYLETHYL FORMATE], CC(=O)OCC=C(C)C [PRENYL ACETATE] is higher in Diffusivity: 7 for the first, 8.1 for the second.

Going from CC(=O)OC(C)c1ccccc1 (stereo not drawn) [STYRALYL ACETATE] to CC(CC=O)c1ccccc1 (stereo not drawn) [TRIFERNAL], the Diffusivity rises from 7.2 to 7.7.

First: CC1=CC(C)C(C=O)CC1 (stereo not drawn) [VERTOCITRAL]
Second: HEXENYL ACETATE CIS TRANS-3
The Diffusivity of the first is higher: 8.1 for the first, 7.4 for the second.

Compared with ISOOCTANONE, MENTHONE L/ISOMENTHONE D is higher in Diffusivity: 8.1 for the first, 8.8 for the second.

With “MENTHONE/ISOMENTHONE [MENTHONE/ISOMENTHONE RAC.]” the Diffusivity was 7.9.

Same assay, conditions: Example 2; scale 1=no impact within 3 min to 9=high impact within 10 sec; 0.5 g in petri dish at 50 cm, 8 panelists; head range 7 a 9

Compared with CCCCCC1CCC(=O)O1 (stereo not drawn) [ALDEHYDE C18 SO-CALLED], O=c1ccc2ccccc2o1 [COUMARIN] is lower in Diffusivity: 7.9 for the first, 7.1 for the second.

First: C=CCOC(=O)COC1CCCCC1 [CYCLOGALBANAT®]
Second: CCCCCC1CCCC(=O)O1 (stereo not drawn) [DECALACTONE DELTA]
The Diffusivity of the first is higher: 8.3 for the first, 7.4 for the second.

Compared with CCCCCCC1CCC(=O)O1 (stereo not drawn) [DECALACTONE GAMMA], CCc1occc(=O)c1O [ETHYL MALTOL] is lower in Diffusivity: 7.3 for the first, 7.1 for the second.

Compared with CCOC(=O)COc1ccccc1 [ETHYL PHENOXY ACETATE], CCOC(=O)Cc1ccccc1 [ETHYL PHENYL ACETATE] is lower in Diffusivity: 7.8 for the first, 7.2 for the second.

Going from O=Cc1ccc2c(c1)OCO2 [HELIOTROPIN] to CCCC1CCC(=O)O1 (stereo not drawn) [HEPTALACTONE GAMMA], the Diffusivity rises from 7.1 to 7.8.

Compared with c1ccc2[nH]ccc2c1 [INDOLE FF, INDOLE], COc1nccnc1CC(C)C [ISOBUTYL METHOXYPYRAZINE-3,2] is higher in Diffusivity: 8 for the first, 8.1 for the second.

CC=Cc1ccc(O)c(OC)c1 [ISOEUGENOL] and COC(=O)c1ccccc1N [METHYL ANTHRANILATE (=130085), METHYL ANTHRANILATE] are the same in Diffusivity: 7.5 for the first, 7.5 for the second.

Compared with CCOc1cc(COC)ccc1O [METHYL DIANTILIS], COc1cc(C)ccc1O [METHYL GUAIACOL-4] is higher in Diffusivity: 7.4 for the first, 8.2 for the second.

Going from COC(=O)c1ccccc1O [METHYL SALICYLATE PF, METHYL SALICYLATE] to CC(C)(CO)Cc1ccccc1 [MUGUETALCOHOL], the Diffusivity falls from 7.7 to 7.3.

Compared with CC/C=C/CC/C=C/CO [NONADIENOL-2,6], CCCCC1CCCC(=O)O1 (stereo not drawn) [NONALACTONE DELTA] is higher in Diffusivity: 7.2 for the first, 8.2 for the second.

CCCC1CCCC(=O)O1 (stereo not drawn) [OCTALACTONE DELTA] and CCCCC1CCC(=O)O1 (stereo not drawn) [OCTALACTONE GAMMA] are the same in Diffusivity: 7.5 for the first, 7.5 for the second.

First: COc1cc(C=O)ccc1O [VANILLIN]
Second: PARMANYL®
The Diffusivity of the first is lower: 7 for the first, 7.7 for the second.
